The chains behind the UniProt entries cited, without tags or fusion partners. Residues count along the entry.
UniProt P00761, 9-231: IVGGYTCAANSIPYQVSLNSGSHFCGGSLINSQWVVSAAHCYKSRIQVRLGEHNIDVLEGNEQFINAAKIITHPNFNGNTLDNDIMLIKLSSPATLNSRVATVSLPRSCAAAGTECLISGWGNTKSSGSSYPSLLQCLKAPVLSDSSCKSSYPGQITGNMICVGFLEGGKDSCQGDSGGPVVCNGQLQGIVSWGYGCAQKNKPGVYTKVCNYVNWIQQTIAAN

In patent US7119094B1, “Substituted polycyclic aryl and heteroarpyl pyrazinones useful for selective inhibition of the coagulation cascade” (Warner-Lambert Company, priority 2000, dated 2006):

Biological target: T1, Trypsin (type 1× from porcine pancreas) (Sus scrofa, UniProt P00761)
T1 construct: Trypsin (5 ug/ml; type 1× from porcine pancreas); purchased Sigma, St. Louis Mo; host or cells: porcine pancreas
Experiment: Trypsin Assay
Format: biochemical
Set-up: concentration or dose not given beside the values

% Inhibition Trypsin II @ 1: 2% @ 1
Compound: COCCNc1nc(Cl)c(-c2ccccc2)n(CC(=O)NCc2ccc(C(=N)N)cc2)c1=O [1507-33]
